Experimental data from the supplement of paper PMC10849652.
The list shows a part of the results.

The chains behind the UniProt entries cited, without tags or fusion partners. Where a name states a change or a piece, a line headed by the entry shows the natural chain unless it says otherwise.
UniProt Q9H9Y6, whole entry, looked up: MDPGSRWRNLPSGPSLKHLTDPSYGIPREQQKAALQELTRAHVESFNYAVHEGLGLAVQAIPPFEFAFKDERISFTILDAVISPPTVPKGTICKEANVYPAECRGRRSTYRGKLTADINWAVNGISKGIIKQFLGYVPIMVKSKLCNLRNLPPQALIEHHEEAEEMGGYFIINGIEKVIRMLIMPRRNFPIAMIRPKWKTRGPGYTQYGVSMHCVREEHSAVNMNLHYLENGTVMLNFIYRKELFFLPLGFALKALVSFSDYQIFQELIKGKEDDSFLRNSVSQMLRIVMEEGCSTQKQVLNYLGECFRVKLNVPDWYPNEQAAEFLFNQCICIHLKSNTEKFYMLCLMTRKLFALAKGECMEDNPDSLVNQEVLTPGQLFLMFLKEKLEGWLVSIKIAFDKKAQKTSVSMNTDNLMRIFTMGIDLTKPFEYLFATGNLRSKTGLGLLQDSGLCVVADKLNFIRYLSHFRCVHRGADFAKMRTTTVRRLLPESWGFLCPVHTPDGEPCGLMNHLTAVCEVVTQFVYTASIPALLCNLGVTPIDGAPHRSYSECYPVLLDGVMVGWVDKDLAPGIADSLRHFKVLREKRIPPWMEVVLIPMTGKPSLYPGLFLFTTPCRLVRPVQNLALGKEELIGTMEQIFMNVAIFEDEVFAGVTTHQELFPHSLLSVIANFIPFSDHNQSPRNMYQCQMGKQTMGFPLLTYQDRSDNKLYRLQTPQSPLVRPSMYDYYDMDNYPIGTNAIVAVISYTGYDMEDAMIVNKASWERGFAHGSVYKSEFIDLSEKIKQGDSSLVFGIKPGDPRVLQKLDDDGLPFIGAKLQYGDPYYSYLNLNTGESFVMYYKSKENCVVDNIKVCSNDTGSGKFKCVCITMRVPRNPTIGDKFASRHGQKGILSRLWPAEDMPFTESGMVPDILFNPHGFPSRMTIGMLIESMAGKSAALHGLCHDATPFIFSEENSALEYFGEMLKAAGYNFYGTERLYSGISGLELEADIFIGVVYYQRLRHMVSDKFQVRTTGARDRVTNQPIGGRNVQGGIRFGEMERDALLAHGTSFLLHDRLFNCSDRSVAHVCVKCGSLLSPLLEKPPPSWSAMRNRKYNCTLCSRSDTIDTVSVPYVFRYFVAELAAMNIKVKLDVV
UniProt Q6T4P5: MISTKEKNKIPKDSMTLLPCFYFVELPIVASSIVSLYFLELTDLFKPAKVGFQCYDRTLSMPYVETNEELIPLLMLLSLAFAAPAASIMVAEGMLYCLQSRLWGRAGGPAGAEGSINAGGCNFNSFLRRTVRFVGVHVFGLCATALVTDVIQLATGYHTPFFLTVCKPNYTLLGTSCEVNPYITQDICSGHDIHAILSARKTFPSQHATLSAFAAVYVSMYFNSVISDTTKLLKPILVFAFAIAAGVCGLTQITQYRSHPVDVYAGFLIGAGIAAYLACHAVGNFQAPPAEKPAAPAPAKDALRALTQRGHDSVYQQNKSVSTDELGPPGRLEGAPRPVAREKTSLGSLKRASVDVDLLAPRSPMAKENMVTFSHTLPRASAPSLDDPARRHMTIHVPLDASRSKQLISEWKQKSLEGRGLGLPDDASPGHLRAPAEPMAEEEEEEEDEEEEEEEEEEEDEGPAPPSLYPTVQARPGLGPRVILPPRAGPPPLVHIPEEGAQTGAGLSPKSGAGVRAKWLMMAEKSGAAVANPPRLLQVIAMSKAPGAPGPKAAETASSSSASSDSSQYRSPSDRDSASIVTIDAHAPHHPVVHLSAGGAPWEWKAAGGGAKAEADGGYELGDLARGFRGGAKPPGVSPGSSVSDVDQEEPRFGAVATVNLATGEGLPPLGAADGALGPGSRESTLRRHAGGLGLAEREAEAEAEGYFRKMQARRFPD
UniProt P11086: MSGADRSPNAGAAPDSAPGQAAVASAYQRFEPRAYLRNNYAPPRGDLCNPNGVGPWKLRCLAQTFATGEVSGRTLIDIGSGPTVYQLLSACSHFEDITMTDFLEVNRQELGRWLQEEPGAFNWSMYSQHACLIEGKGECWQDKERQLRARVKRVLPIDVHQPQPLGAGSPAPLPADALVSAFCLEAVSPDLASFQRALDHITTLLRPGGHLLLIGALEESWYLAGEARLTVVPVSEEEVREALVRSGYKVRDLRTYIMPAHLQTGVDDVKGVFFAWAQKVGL
UniProt O00411: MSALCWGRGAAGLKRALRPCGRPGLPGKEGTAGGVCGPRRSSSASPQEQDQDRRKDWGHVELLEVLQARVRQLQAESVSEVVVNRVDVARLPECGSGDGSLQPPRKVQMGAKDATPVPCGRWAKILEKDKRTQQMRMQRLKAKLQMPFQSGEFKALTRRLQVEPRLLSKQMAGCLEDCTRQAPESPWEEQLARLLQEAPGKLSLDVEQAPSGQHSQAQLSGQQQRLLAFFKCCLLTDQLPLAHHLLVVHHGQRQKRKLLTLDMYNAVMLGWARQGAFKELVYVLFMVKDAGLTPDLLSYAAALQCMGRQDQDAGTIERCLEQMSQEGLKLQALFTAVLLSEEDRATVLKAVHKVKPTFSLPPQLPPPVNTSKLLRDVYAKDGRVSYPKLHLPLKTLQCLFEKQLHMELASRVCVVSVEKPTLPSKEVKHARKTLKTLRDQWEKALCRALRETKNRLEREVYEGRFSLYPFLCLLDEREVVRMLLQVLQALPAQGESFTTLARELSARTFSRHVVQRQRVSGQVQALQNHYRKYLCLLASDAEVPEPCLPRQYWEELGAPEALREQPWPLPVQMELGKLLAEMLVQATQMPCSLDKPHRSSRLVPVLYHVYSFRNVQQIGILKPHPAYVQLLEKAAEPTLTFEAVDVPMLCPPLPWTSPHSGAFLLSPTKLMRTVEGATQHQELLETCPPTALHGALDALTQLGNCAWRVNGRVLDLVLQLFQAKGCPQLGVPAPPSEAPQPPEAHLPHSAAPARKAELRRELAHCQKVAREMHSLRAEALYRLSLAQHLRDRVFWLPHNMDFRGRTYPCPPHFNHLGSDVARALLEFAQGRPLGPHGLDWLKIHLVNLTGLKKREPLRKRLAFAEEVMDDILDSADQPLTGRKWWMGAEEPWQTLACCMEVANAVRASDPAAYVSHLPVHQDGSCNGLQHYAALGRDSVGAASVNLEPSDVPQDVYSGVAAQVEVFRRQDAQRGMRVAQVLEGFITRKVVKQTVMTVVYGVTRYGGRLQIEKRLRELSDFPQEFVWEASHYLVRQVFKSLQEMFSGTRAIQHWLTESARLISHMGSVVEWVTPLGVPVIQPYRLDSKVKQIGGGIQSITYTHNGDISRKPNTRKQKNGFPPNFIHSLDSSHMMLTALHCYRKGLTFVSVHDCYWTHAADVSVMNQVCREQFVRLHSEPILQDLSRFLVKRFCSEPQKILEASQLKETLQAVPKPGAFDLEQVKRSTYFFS
UniProt P45877: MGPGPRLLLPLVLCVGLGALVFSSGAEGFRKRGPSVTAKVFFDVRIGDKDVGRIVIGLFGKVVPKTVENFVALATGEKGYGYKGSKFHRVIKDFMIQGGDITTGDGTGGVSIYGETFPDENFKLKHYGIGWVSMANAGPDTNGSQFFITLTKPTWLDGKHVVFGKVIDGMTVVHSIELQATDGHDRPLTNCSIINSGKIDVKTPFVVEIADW
UniProt Q9Y2Y1: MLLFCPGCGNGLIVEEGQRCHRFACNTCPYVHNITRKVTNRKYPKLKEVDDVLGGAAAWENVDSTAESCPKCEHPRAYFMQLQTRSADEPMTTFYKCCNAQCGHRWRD
UniProt Q9Y535: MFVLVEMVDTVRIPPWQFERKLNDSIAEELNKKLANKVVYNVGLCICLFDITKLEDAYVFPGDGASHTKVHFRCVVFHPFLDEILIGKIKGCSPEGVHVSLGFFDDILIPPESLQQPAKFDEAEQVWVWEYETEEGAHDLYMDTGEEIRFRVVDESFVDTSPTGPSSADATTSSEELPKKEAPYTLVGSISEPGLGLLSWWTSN
UniProt Q8NAT1: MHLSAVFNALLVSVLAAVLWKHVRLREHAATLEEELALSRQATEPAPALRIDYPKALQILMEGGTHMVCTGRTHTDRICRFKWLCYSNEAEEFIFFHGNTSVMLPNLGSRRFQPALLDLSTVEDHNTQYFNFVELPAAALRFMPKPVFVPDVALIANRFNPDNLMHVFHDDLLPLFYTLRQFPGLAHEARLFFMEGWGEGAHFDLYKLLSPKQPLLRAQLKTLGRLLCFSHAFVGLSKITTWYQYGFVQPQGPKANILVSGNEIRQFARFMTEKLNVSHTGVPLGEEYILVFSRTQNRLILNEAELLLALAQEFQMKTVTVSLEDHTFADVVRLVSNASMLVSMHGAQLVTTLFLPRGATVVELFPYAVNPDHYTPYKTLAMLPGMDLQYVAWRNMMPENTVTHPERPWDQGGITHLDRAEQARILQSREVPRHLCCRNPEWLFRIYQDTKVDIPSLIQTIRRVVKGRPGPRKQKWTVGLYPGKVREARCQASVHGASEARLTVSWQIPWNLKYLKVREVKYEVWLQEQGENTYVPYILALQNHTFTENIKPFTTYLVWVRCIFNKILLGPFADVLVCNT
UniProt Q9NW61: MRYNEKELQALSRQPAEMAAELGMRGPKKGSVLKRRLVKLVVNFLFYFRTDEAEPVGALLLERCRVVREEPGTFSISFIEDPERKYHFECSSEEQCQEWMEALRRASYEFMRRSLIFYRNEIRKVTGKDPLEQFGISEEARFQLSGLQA
UniProt P0DPB6, whole entry, looked up: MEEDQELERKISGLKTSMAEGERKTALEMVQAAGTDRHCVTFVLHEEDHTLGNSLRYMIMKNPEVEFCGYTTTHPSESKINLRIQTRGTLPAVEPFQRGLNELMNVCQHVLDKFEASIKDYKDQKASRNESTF
UniProt O75145: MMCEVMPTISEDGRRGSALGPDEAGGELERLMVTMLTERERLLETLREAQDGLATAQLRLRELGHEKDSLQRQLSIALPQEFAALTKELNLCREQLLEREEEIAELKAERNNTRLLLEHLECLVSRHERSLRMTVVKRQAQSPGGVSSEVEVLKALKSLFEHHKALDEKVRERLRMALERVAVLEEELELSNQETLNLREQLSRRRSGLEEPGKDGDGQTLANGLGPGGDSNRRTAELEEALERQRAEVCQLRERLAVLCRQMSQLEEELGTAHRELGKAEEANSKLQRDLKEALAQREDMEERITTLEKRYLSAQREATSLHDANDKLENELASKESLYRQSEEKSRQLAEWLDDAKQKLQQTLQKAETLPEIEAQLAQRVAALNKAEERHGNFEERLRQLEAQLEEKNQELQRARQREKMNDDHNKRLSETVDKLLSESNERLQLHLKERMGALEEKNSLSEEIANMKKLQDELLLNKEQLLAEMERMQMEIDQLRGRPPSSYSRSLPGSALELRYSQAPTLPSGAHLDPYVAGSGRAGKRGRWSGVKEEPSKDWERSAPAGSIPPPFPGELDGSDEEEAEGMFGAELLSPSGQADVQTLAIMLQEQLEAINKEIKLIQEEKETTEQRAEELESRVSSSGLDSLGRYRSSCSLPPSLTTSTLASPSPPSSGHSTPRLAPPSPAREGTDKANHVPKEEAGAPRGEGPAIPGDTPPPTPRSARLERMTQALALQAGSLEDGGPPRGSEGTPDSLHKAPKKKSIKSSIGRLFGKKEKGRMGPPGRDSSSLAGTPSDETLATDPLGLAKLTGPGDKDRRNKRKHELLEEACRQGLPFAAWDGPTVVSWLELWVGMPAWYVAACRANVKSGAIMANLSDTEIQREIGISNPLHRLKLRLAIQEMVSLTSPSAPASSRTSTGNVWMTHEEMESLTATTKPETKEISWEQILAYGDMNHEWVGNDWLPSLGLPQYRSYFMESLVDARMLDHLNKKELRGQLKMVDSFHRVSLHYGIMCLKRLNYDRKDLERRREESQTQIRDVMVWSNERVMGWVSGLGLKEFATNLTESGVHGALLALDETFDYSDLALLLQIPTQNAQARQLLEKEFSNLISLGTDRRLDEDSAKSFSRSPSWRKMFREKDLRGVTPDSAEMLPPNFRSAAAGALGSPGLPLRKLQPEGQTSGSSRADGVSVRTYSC
UniProt P0DPB5: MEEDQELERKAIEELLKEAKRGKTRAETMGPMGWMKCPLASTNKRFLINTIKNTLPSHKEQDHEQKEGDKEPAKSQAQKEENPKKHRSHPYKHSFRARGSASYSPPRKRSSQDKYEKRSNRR
UniProt P55058, whole entry, looked up: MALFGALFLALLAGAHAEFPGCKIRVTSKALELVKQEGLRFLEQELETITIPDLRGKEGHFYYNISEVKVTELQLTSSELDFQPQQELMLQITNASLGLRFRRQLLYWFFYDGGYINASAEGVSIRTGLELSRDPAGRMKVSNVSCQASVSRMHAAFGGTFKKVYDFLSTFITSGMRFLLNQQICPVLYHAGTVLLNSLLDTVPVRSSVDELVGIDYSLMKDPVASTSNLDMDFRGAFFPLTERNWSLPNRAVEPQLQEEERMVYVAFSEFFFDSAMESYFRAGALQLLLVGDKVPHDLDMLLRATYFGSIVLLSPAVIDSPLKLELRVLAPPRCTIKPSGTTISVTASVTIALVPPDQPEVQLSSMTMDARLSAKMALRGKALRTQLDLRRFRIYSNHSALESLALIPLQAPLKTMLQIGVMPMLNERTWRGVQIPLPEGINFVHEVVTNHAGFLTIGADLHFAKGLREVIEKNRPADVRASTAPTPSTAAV

Assays:
Test in all cases: log2 fold change, soluble protein after heating vs DMSO (PISA); higher = thermal stabilisation; K562 cells, 10 uM, 30 min; active = over 0.2 and 3.5 SD of the protein, either way, in both replicates (recomputed)
[1] = compound: Cc1sc2c(c1C)C(c1ccc(Cl)cc1)=N[C@@H](CC(=O)OC(C)(C)C)c1nnc(C)n1-2
Method in brief: (§1)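 Soluble protein was quantified by TMTpro 16plex LC-MS/MS after channel sums were equalised. It was obtained as the supernatant after 21,000xg for 90 min from pooled aliquots of K562 cells (2×10^6 cells/mL, 10 μM compound, 30 min) heated for 3 min across 48°C-58°C and extracted in PBS with 0.5% NP-40 at 4°C. Thermal stability values are relative to control samples and come from duplicates. They are given as log2 fold changes.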

[2] = compound: CC1=C2C(=CC=C1)N=C(N(C2=O)C3=CC=CC=C3C)CN4C=NC5=C(N=CN=C54)N
Method in brief: as §1

[3] = compound: CC1=C(SC2=C1C(=N[C@H](C3=NN=C(N32)C)CC(=O)N)C4=CC=C(C=C4)Cl)C
Method in brief: as §1

[4] = compound: c1ccc([C@@H]2C[C@H]2NC2CCNCC2)cc1
Method in brief: as §1

[5] = compound: C1=CC=C(C=C1)[C@H](COC2=CC3=C(C=C2)NC(=O)N3)NC(=O)C4=CC=CN(C4=O)CC5=CC(=C(C=C5)F)F
Method in brief: as §1

Measured: log2 fold change

POLG, A0A3B3IS91
inactive: [1] -0.027

POMT1 (UniProt Q9Y6A1)
inactive: [2] 0.107 | [1] 0.139

POGZ (UniProt Q7Z3K3)
inactive: [3] 0.056 | [2] 0.099 | [1] 0.025 | [4] -0.032

PLGRKT (UniProt Q9HBL7)
inactive: [5] -0.02 | [3] 0.17 | [1] -0.082 | [4] -0.018

POLR2J (UniProt P52435)
inactive: [5] -0.054 | [3] 0.178 | [4] -0.024

POLR1B isoform 3 (UniProt Q9H9Y6)
inactive: [3] -0.127 | [2] -0.093 | [1] 0.049 | [4] 0.029

PNKP (UniProt Q96T60)
inactive: [3] 0.107 | [2] 0.229 | [1] -0.02 | [4] -0.078

PLPPR3 isoform 3 (UniProt Q6T4P5)
inactive: [3] 0.003 | [4] 0.093

PPHLN1 isoform 3 (UniProt Q8NEY8)
inactive: [3] 0.168 | [1] -0.074 | [4] 0.443

PLXND1 (UniProt Q9Y4D7)
inactive: [5] -0.118 | [2] 0.243

PNMT (UniProt P11086)
inactive: [3] 0.072 | [1] 0.029 | [4] -0.002

POLB (UniProt P06746)
inactive: [3] 0.053 | [1] -0.107 | [4] -0.006

PMS2 (UniProt P54278)
inactive: [3] 0.056 | [2] 0.139 | [4] -0.05

POLRMT (UniProt O00411)
inactive: [2] -0.144

PPIC (UniProt P45877)
inactive: [5] 0.141 | [3] 0.018 | [4] -0.041

PLSCR3 (UniProt Q9NRY6)
inactive: [3] -0.01 | [4] 0.239

POLR3K (UniProt Q9Y2Y1)
inactive: [5] -0.009 | [3] -0.008 | [2] -0.029 | [1] 0.021 | [4] 0.056

POLR3H (UniProt Q9Y535)
inactive: [5] -0.139 | [3] -0.077 | [2] -0.073 | [4] 0.029

Two successive entries out of the list so far, for reference:
POLRMT (UniProt O00411)
inactive: [2] -0.144

PPIC (UniProt P45877)
inactive: [5] 0.141 | [3] 0.018 | [4] -0.041

Further entries

PPHLN1 (UniProt Q8NEY8)
inactive: [5] 0.109 | [2] -0.14

POMGNT2 (UniProt Q8NAT1)
inactive: [5] -0.132 | [3] -0.097 | [2] -0.05 | [4] 0.141

POF1B isoform 1 (UniProt Q8WVV4)
inactive: [5] 0.441 | [2] -0.304 | [1] -0.125

PLS1 (UniProt Q14651)
inactive: [5] -0.055 | [3] 0.049 | [2] 0.066 | [1] 0 | [4] -0.004

POLD4 (UniProt Q9HCU8)
inactive: [5] -0.07 | [3] 0.078 | [1] -0.044 | [4] 0.085

POLR2L (UniProt P62875)
inactive: [3] 0.405 | [2] 0.146 | [1] -0.151 | [4] -0.145

PLEKHJ1 (UniProt Q9NW61)
inactive: [3] -0.039 | [4] -0.075

PNN (UniProt Q9H307)
inactive: [5] 0.084 | [3] 0.021 | [4] 0.012

POT1 (UniProt Q9NUX5)
inactive: [5] -0.081 | [1] 0.131

POLR1D (UniProt P0DPB6)
inactive: [5] 0.147 | [3] -0.083 | [2] 0.026 | [1] -0.074 | [4] 0.03

PPIP5K2 (UniProt H0Y9S9)
inactive: [5] 0.036 | [3] 0.029 | [1] -0.106 | [4] -0.018

PPFIA3 (UniProt O75145)
inactive: [3] -0.133 | [4] -0.049

PLXNA3 (UniProt P51805)
inactive: [5] 0.181 | [1] 0.038

POLR1D (UniProt P0DPB5)
inactive: [5] 0.144 | [3] -0.021 | [1] 0.203 | [4] 0.051

PLTP (UniProt P55058)
inactive: [3] 0.035 | [2] 0.16 | [4] 0.018

PORCN (UniProt Q9H237)
inactive: [3] 0.053 | [2] -0.01 | [4] -0.007

PLP2 (UniProt Q04941)
inactive: [5] -0.484 | [3] 0.033 | [2] -0.149 | [4] 0.185
